Laboratory results published in patent publication US20040082664A1, “Derivatives of hydroxyphenyl, a method for preparing thereof and their pharmaceutical composition” (priority 2002, published 2004).
Some entries share one result that the patent states for a list of compounds. At least one compound was matched to its structure with a doubt left.

Test system: IL-2 promoter
Assay: IL-2 promoter luciferase reporter assay in anti-CD3 activated Jurkat cells
Format: cell-based
Conditions: TCR-induced IL-2 promoter activation
Method: In order to confirm whether the compounds of the invention can pass through a cell membrane and inhibit the expression of IL-2 gene leading to T-cell proliferation, the present inventors firstly confirmed T-cell activity by detecting the activity of the luciferase fused on the downstream of IL-2 promoter.
To investigate the activity of IL-2 promoter, Jurkat cells (1×10^6) were transfected with a IL-2 reporter plasmids using Superfect™ (Qiagen Inc.). After 24 hours of transfection, Jurkat cells were pre-incubated with compounds of various concentrations (1 uM-50 uM) for 2 hours and further cultured on 35mm plate pre-coated with 5 ug/ml of anti-CD3 antibody, resulting in T cell activation. The luciferase activity was measured using Berthold luminometer LB953. The IC50 (50% inhibition concentration) of the compounds of the invention on TCR-induced IL-2 promoter activation are shown in Table 2.

| SMILES | inhibition of IL-2 promoter activation |
| --- | --- |
| COC(=O)[C@@H](Cc1ccc(O)c(O)c1)NC(=O)/C=C/c1ccc(O)c(O)c1 [Example 1, 3-(3,4-dihydroxy-phenyl)-(R)-2-[3-trans-(3,4-dihydroxy-phenyl)-acryloylamino]-propionic acid methyl ester] | strongly inhibited |
| CCOC(=O)[C@@H](Cc1ccc(O)c(O)c1)NC(=O)/C=C/c1ccc(O)c(O)c1 [Example 3, 3-(3,4-dihydroxy-phenyl)-(R)-2-[3-trans-(3,4-dihydroxy-phenyl)-acryloylamino]-propionic acid ethyl ester] | strongly inhibited |
| NC(=O)[C@@H](Cc1ccc(O)c(O)c1)NC(=O)/C=C/c1ccc(O)c(O)c1 [Example 7] | strongly inhibited |
| CCOC(=O)[C@H](Cc1ccc(O)c(O)c1)NC(=O)/C=C/c1ccc(O)c(O)c1 [Example 10, 3-(3,4-dihydroxy-phenyl)-(S)-2-[3-trans-(3,4-dihydroxy-phenyl)-acryloylamino]-propionic acid ethyl ester] | strongly inhibited |
| CCCOC(=O)[C@H](Cc1ccc(O)c(O)c1)NC(=O)/C=C/c1ccc(O)c(O)c1 [Example 11, 3-(3,4-dihydroxy-phenyl)-(S)-2-[3-trans-(3,4-dihydroxy-phenyl)-acryloylamino]-propionic acid propyl ester] | strongly inhibited |
| CCOC(=O)[C@@H](Cc1ccc(O)c(O)c1)NC(=S)/C=C/c1ccc(O)c(O)c1 [Example 17, 3-(3,4-dihydroxy-phenyl)-(R)-2-[3-trans-(3,4-dihydroxy-phenyl)-thioacryloylamino]-propionic acid ethyl ester] | strongly inhibited |
| COC(=O)[C@@H](Cc1ccc(O)c(O)c1)OC(=O)/C=C/c1ccc(O)c(O)c1 [Example 54, (R)-3-(3,4-dihydroxy-phenyl)-acrylic acid 2-(3,4-dihydroxy-phenyl)-1-methoxycarbonyl ethyl ester] | strongly inhibited |
| CCCOC(=O)[C@@H](Cc1ccc(O)c(O)c1)OC(=O)/C=C/c1ccc(O)c(O)c1 [Example 55, (R)-3-(3,4-Dihydroxy-phenyl)-acrylic acid 2-(3,4-dihydroxy-phenyl)-1-propoxycarbonyl ethyl ester] | strongly inhibited |
| CC(C)(C)OC(=O)[C@@H](Cc1ccc(O)c(O)c1)OC(=O)/C=C/c1ccc(O)c(O)c1 [Example 56, (R)-3-(3,4-Dihydroxy-phenyl)-acrylic acid 2-(3,4-dihydroxy-phenyl)-1-tert-butoxycarbonyl ethyl ester] | strongly inhibited |
| NC(=O)[C@@H](Cc1ccc(O)c(O)c1)OC(=O)/C=C/c1ccc(O)c(O)c1 [Example 57, (R)-3-(3,4-Dihydroxy-phenyl)-acrylic acid 2-(3,4-dihydroxy-phenyl)-1-carbamoyl ethyl ester] | strongly inhibited |
| CC(C)NC(=O)[C@@H](Cc1ccc(O)c(O)c1)OC(=O)/C=C/c1ccc(O)c(O)c1 [Example 58, (R)-3-(3,4-Dihydroxy-phenyl)-acrylic acid 2-(3,4-dihydroxy-phenyl)-1-isopropylcarbamoyl ethyl ester] | strongly inhibited |
